# Assay results published in PubChem BioAssay AID540256 (National Center for Advancing Translational Sciences (NCATS), 2011).
# Hit rate of the full screen: of about 300,000 compounds, about 3,700 (1.2%) were called active. The shares of active, inactive and inconclusive entries below differ from those in the screen. Calls follow the shape of the full dose curve; tested in HEK293 cells. A potency beside an inconclusive call is a rough fit, not a confirmed value.
# Test: qHTS for Inhibitors of binding or entry into cells for Lassa Virus; also: nearly all actives have a fitted effect of over 50% in size
# Details: Lassa virus pseudotype entry inhibition, cell reporter; series mostly up to 37.9 µM
# Potency is read from the fitted curve at half-maximal effect.
row,Structure (SMILES),Potency
1,COc1ccc(CNC(=O)c2cccc(S(=O)(=O)N3CCN(c4ccc(F)cc4)CC3)c2)cc1,"inconclusive: 0.447 µM [inhibitor, full curve]"
2,CC1CCN(CCCCOc2ccc(C(=O)c3ccccc3)cc2)CC1,active: 15.8 µM
3,O=C(C1CCC(CNc2nc(=S)[nH]c3ccccc23)CC1)N1CCN(c2ccc(F)cc2)CC1 (stereo not given),"inconclusive: 14.1 µM [inhibitor, single point]"
4,CN(C)c1ccc(/C=N/NC(=O)c2ccn(C)n2)cc1,"inconclusive: 15.8 µM [inhibitor, single point]"
5,N#C/C(=C/C=C/c1ccccc1)C(=O)Nc1ccccc1,"inconclusive: 3.26 µM [inhibitor, full curve, poor fit]"
6,O=C(c1ccc(Oc2ccc([N+](=O)[O-])cc2Cl)cc1)N1CCCC1,inactive
7,CCN(CC(=O)Nc1ccc2c(c1)OCCO2)C(=O)c1ccc(Cl)cc1Cl,"inconclusive: 8.91 µM [inhibitor, partial curve, poor fit]"
8,CCOC(=O)CCNCc1ccc(F)cc1,inactive
9,CC/C(=N\NC(=O)c1cc(C)nc2ccccc12)c1ccc(C)s1,"inconclusive: 1.64 µM [inhibitor, full curve]"
10,CCCOc1cccc(C(=O)NC(=S)Nc2cccc(NC(=O)c3ccccc3Cl)c2)c1,"inconclusive: 1 µM [inhibitor, partial curve, poor fit]"
11,CCc1ccc(S(=O)(=O)N2c3ccc(C)cc3C3CN(C)CCC32)cc1 (stereo not given),"inconclusive: 11.2 µM [inhibitor, single point]"
12,CN(C)c1ccc(C2Nc3ccccc3C(=O)N2NS(=O)(=O)c2ccccc2)cc1 (stereo not given),"inconclusive: 35.5 µM [inhibitor, single point]"
13,COc1ccc(CC(=O)N(CC2CCCO2)c2nc3ccccc3s2)cc1 (stereo not given),inactive
14,O=C(Nc1nc2ccccc2s1)c1cc(-c2ccccc2)nn1-c1ccccc1,"inconclusive: 23.1 µM [activator, single point]"
15,CC(=O)Nc1ccc(Nc2ccc3nonc3c2[N+](=O)[O-])cc1,inactive
16,COc1ccc(C(C)=O)cc1CC(C(=O)c1ccc(C)c(C)c1)N(C)C (stereo not given),"inconclusive: 0.794 µM [inhibitor, single point]"
17,COC(=O)COc1cccc(NC(=O)c2ccc(C)cc2)c1,inactive
18,CC(=C/c1ccccc1)/C=N/NC(=O)c1cccs1,"inconclusive: 8.91 µM [inhibitor, partial curve, poor fit]"
19,Cc1ccc2nc(N(Cc3cccnc3)C(=O)c3cccs3)sc2c1,"inconclusive: 6.31 µM [inhibitor, partial curve, poor fit]"
20,Cc1ccccc1CNC(=O)c1ccc(CS(=O)Cc2ccc(Cl)cc2)o1 (stereo not given),inactive
21,Cc1ccc(-n2c(C)nc3c(cnn3-c3ccccc3Cl)c2=O)cc1C,inactive
22,COc1cc(OC)cc(C(=O)NNC(=O)NC2CCCCC2)c1,"inconclusive: 10 µM [activator, partial curve, poor fit]"
23,Cn1c(Sc2ccc(Br)cc2)c(C=O)c2ccccc21,active: 10 µM
24,Cc1ccc(CCNC(=O)c2ccc3c(c2)c(C)c(C)n3Cc2ccccc2)cc1,inactive

# Single values from the list.
# Potency, CCN(CC(=O)Nc1ccc2c(c1)OCCO2)C(=O)c1ccc(Cl)cc1Cl is entered as inconclusive: 8.91 µM [inhibitor, partial curve, poor fit]
# Potency, CN(C)c1ccc(C2Nc3ccccc3C(=O)N2NS(=O)(=O)c2ccccc2)cc1 (stereo not given) is entered as inconclusive: 35.5 µM [inhibitor, single point]
# Potency, O=C(C1CCC(CNc2nc(=S)[nH]c3ccccc23)CC1)N1CCN(c2ccc(F)cc2)CC1 (stereo not given) is entered as inconclusive: 14.1 µM [inhibitor, single point]

# Additional compounds follow.

row,Structure (SMILES),Potency
1,O=S(=O)(NCC(c1ccco1)N1CCN(c2ccccc2F)CC1)c1ccc2c(c1)OCCO2 (stereo not given),inactive
2,CCc1nc2c(cnn2-c2ccc(Cl)cc2)c(=O)n1-c1ccc(OC)c(Cl)c1,inactive
3,CC1CCc2cc(F)cc3c(O)c(C(=O)NCc4ccco4)c(=O)n1c23 (stereo not given),inactive
4,O=C(CN1c2ccccc2Sc2ccccc21)N/N=C/c1ccc([N+](=O)[O-])cc1,"inconclusive: 22.4 µM [inhibitor, single point]"
5,Cc1nc(-c2cnn(-c3ccccc3)c2)c2cc(C)oc2n1,inactive
6,COc1ccccc1C1CCN(C(=O)c2ccc(Cl)cc2)CC1,"inconclusive: 28.2 µM [inhibitor, single point]"
7,Cc1c(CCC(=O)NCCCn2ccnc2)c(=O)oc2cc3occ(C(C)(C)C)c3cc12,"inconclusive: 1.26 µM [inhibitor, partial curve, poor fit]"
8,CCc1ccc(CN(Cc2ccco2)C(=O)COc2ccc(Cl)cc2C)cc1,"inconclusive: 35.5 µM [inhibitor, single point]"
9,CC(=O)Nc1ccc2nc(SCCOc3ccccc3)sc2c1,inactive
10,Cc1ccc2oc(=O)c3cc(C(=O)NCCCN4CC(C)CC(C)C4)sc3c2c1 (stereo not given),"inconclusive: 20 µM [activator, single point]"
11,Cc1cccc(NC(=O)c2c(C)nn(-c3ccccc3)c2Cl)c1,inactive
12,Cc1ccccc1CCN(C(=O)Cn1nnc2ccccc21)C(C(=O)NC(C)(C)C)c1ccsc1 (stereo not given),"inconclusive: 29.1 µM [inhibitor, single point]"
13,Cc1cccc(NC(=O)C2(C)Cc3ccccc3C(=O)O2)c1 (stereo not given),"inconclusive: 2.51 µM [activator, full curve, poor fit]"
14,Cc1ccc(NC(=O)C(=O)NCCCN2CCOCC2)cc1C,"inconclusive: 31.6 µM [activator, single point]"
15,c1ccc(-c2csc(-c3ccncc3)n2)cc1,inactive
16,Cc1nn(-c2ccccc2)c(Cl)c1/C=N/NC(=O)OC(C)(C)C,"inconclusive: 35.5 µM [inhibitor, single point]"
17,CC1(C)C([N+](=O)[O-])C(c2ccccc2O)NC(c2ccccc2O)C1[N+](=O)[O-] (stereo not given),"inconclusive: 7.08 µM [inhibitor, partial curve]"
18,COc1ccc(-c2[nH]ncc2CN(CC2CCC(=O)N2)C(C)C)cc1F (stereo not given),inactive
19,O=C(O)c1cccc(NS(=O)(=O)c2ccc(C3CCCCC3)cc2)c1,"inconclusive: 2 µM [activator, partial curve, poor fit]"
20,FC(F)(F)c1ccnc(NCc2ccc(Cl)cc2)n1,"inconclusive: 11.2 µM [inhibitor, partial curve, poor fit]"
21,CCOC(=O)c1ccc(COC(=O)c2ccc(-c3nnc(-c4ccccc4)o3)cc2)o1,"inconclusive: 1.26 µM [activator, single point]"
22,CCOCCCNc1ncnc2c1[nH]c1ccccc12,"inconclusive: 14.1 µM [inhibitor, partial curve, poor fit]"
23,COc1cccc(NC(=O)Cn2c(=O)n(CC3CCCO3)c(=O)c3ccccc32)c1 (stereo not given),inactive
24,Cc1nn(CCc2n[nH]c(=S)n2-c2ccc(F)cc2)c(C)c1[N+](=O)[O-],"inconclusive: 25.9 µM [activator, single point]"

row,Structure (SMILES),Potency
1,O=c1[nH]c(CS(=O)(=O)c2ccccc2)nc2ccccc12,inactive
2,CCN1CCC(CNCc2cn(-c3ccc(OC)cc3)nc2-c2ccccc2Cl)C1 (stereo not given),"inconclusive: 15.8 µM [inhibitor, single point]"
3,Cc1ccc(NC(=O)C2CCC2)cc1S(=O)(=O)N1CCCCCC1,"inconclusive: 10 µM [inhibitor, partial curve, poor fit]"
4,OC(CN1CCC(Cc2ccc(F)cc2)CC1)c1ccc(Cl)cc1 (stereo not given),"inconclusive: 14.6 µM [inhibitor, partial curve]"
5,O=C(CCS(=O)(=O)c1ccccc1)Nc1nnc(C(F)(F)F)s1,"inconclusive: 35.5 µM [inhibitor, single point]"
6,CCC1CCCCN1c1nc(-c2ccncc2)nc2ccccc12 (stereo not given),"inconclusive: 14.6 µM [inhibitor, partial curve]"
7,COc1ccc(C(NC(=O)c2cccnc2)c2cc(Cl)c3cccnc3c2O)cc1OC (stereo not given),active: 15.8 µM
8,COC(=O)c1ccc(CSc2nnc(CS(=O)Cc3ccc(Br)cc3)n2-c2ccccc2)cc1 (stereo not given),"inconclusive: 12.6 µM [inhibitor, partial curve, poor fit]"
9,Cc1ccccc1CN1CCN(Cc2ccc3cccc(F)c3n2)CC1CCO (stereo not given),inactive
10,COC(=O)C1=CN(Cc2cccs2)C=C(C(=O)OC)C1c1cccc(Cl)c1,"inconclusive: 17.8 µM [inhibitor, single point]"
11,O=[N+]([O-])c1ccc(/C=N/NC(=S)Nc2ccccc2)o1,inactive
12,Cc1cc(NC2=CC(=O)C(=O)c3ccccc32)no1,"inconclusive: 12.6 µM [inhibitor, partial curve, poor fit]"
13,Cc1cc(NC(=O)CCl)nn1C,"inconclusive: 10 µM [inhibitor, partial curve, poor fit]"
14,Cc1nc2ccccc2nc(C)c1=NOCC(=O)N(c1ccccc1)C(C)C,"inconclusive: 11.2 µM [inhibitor, partial curve, poor fit]"
15,COCCCNC(CC(=O)Nc1ccc(OC)cc1OC)C(=O)O (stereo not given),"inconclusive: 4.61 µM [activator, partial curve, poor fit]"
16,Cc1[nH]n2c(=O)c3c(nc2c1-c1cccc2ccccc12)CCC3,"inconclusive: 25.9 µM [activator, single point]"
17,C(=N\Nc1ccccn1)/c1ccc(N2CCOCC2)cc1,"inconclusive: 35.5 µM [inhibitor, single point]"
18,CCc1ccc(Nc2cc(C)nc3nc(C)nn23)cc1,inactive
19,Cc1cccc(OCCSc2nnc(-c3ccoc3C)n2C)c1,inactive
20,Cc1cc(C)c(NC(=O)c2ccccc2C(=O)c2ccccc2)c(C)c1,"inconclusive: 3.98 µM [activator, partial curve, poor fit]"
21,COc1ccc(C(=O)N=c2sc3ccccc3n2C)cc1OC,inactive
22,COc1ccc(NC(=O)c2oc3ccc(S(=O)(=O)N4CCC5(CC4)OCCO5)cc3c2C)cc1Cl,"inconclusive: 7.08 µM [inhibitor, partial curve, poor fit]"
